US8685890 (Bicycle, dated 2014)
No constants are given. Whether binding was seen depends on the method and setting. Some entries that bind do so weakly or less than the wild type.

Amino acid sequences for entries named in this document (tags omitted). Residues count along the entry.
UniProt P03952, residues 20-638: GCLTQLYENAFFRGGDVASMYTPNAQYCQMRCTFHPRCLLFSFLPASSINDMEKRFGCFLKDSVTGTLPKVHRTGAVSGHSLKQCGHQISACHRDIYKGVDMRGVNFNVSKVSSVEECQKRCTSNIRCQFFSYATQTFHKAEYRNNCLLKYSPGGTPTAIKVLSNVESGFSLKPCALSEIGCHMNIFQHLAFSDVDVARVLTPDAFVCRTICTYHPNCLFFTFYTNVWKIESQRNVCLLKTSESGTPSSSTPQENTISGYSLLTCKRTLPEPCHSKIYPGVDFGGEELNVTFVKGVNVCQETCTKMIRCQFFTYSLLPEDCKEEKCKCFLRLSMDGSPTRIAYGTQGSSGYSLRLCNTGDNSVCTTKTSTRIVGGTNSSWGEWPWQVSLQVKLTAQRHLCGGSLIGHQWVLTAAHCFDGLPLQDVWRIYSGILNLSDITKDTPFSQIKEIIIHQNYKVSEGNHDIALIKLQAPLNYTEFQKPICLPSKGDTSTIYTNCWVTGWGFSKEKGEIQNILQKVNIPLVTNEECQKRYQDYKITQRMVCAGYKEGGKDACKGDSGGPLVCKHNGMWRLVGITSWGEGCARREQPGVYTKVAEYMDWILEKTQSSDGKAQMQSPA
UniProt Q00987, residues 2-125: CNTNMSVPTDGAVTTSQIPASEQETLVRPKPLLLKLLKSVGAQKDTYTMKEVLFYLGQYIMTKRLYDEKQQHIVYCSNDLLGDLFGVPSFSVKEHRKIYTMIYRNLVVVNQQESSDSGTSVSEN
UniProt P02769, residues 25-607: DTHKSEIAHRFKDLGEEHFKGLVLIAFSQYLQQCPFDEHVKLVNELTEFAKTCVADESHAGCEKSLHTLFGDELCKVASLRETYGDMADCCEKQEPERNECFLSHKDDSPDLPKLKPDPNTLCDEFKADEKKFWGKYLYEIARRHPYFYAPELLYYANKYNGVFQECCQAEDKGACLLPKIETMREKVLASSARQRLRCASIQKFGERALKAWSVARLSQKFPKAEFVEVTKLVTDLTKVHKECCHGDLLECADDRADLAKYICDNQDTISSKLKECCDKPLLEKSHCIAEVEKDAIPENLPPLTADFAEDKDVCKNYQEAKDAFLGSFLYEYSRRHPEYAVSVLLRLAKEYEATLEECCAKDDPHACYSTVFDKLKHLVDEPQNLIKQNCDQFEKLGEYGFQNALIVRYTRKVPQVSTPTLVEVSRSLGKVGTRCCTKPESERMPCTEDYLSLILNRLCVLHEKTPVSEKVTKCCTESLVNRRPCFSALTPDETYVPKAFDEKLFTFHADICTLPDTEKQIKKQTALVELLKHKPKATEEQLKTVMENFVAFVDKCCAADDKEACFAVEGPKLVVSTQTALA

Tests used:
kallikrein = kallikrein (UniProt P03952 20-638, limits assumed); assay: inferred by the filing from inhibition of kallikrein activity
[1] = target: Mdm2 (construct limits not stated) (UniProt Q00987); assay: fluorescence anisotropy titration
bovine serum albumin [2] = target: T1, bovine serum albumin (bovine, UniProt P02769 25-607); assay: fluorescence anisotropy titration
T1 construct: also called BSA

[3] = target: Mdm2 (construct limits not stated) (UniProt Q00987); assay: fluorescence anisotropy titration, Mdm2 titrated into the bicyclic peptide (y axis without label)
bovine serum albumin [4] = target: T1, bovine serum albumin; assay: fluorescence anisotropy titration, BSA titrated into the bicyclic peptide (y axis without label)
MDM2 (res 2-125) = MDM2 (res 2-125) (UniProt Q00987); assay: fluorescence anisotropy titration, MDM2 (res 2-125) titrated into the peptide

Measured: binding

B1: bicyclic Fmoc-WGGGA-PEP48L1-PK15L1 (peptide)
peptide: WGGGACVRFGWTCSDRFRNCG
modifications: N-terminal Fmoc; C-terminal amide; the three cysteines linked to TBMB
binds: kallikrein | [1] | bovine serum albumin [2] | [3] | bovine serum albumin [4]

B2: PK15L1-PEP48L1 bicyclic (peptide)
peptide: ACSDRFRNCVRFGWTCG
modifications: the three cysteines linked to the TBMB core
binds: MDM2 (res 2-125)
